Test results from PMC10787506.
These are yes or no findings as the source states them, for the method shown. For some assays here: In cells and extracts the contact can be indirect. Some binding calls cover weakened binding; strength is not graded here. For some assays here: Where a sequence is shown, tags or fusion partners need not be part of it.

Protein sequences, listed by entry. Tags and fused reporters are not part of them.
UniProt P45974: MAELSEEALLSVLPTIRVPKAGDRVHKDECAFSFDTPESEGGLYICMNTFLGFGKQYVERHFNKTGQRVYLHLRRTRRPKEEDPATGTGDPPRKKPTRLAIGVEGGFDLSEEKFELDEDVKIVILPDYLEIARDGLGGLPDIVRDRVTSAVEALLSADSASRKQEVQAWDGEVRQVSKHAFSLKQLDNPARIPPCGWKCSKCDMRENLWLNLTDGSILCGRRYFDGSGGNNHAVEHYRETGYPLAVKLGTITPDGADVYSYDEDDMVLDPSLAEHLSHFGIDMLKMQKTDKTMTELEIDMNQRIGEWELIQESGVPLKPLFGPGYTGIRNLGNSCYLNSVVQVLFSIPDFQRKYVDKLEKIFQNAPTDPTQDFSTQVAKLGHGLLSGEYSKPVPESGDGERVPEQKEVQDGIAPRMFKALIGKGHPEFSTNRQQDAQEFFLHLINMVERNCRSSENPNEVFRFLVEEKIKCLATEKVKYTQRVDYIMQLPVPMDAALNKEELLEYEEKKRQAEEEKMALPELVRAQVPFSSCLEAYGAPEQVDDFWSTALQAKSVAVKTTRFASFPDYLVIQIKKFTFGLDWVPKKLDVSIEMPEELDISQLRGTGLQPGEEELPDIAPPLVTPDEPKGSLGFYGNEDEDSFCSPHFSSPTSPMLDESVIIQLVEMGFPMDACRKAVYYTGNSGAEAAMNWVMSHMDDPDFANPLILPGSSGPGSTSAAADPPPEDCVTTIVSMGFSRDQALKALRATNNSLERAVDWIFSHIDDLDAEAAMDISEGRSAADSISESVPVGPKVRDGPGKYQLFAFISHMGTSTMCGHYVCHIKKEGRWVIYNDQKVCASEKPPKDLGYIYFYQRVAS

Columns and labels:
GST-PFKP = biological target: T1, GST-PFKP (UniProt Q01813); assay: pull-down; purified His-USP5 incubated with purified GST-PFKP or GST-Tag protein at 4 °C overnight; Glutathione Sepharose beads added for 4 h; eluted in SDS sample buffer, western blot; both purified
T1 sequence: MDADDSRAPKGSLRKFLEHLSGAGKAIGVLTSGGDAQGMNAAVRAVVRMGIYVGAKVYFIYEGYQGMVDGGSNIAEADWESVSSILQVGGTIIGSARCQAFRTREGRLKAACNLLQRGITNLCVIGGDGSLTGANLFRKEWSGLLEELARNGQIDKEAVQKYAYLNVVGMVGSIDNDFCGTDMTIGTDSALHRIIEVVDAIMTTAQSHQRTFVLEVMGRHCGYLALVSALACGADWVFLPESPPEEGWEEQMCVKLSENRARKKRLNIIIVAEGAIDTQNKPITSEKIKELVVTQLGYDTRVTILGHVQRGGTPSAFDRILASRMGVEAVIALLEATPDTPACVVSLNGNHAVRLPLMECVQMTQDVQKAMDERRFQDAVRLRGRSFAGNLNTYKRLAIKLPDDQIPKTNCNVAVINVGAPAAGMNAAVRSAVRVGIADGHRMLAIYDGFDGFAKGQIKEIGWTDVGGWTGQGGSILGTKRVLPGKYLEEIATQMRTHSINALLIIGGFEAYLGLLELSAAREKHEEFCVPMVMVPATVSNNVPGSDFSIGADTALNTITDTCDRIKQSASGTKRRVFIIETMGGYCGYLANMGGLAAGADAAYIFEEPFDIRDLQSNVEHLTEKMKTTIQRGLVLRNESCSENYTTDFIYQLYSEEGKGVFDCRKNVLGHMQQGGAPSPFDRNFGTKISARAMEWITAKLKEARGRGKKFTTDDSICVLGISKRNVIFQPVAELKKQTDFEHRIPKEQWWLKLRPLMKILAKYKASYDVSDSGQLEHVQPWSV

[1] = biological target: T2, ATP-dependent 6-phosphofructokinase, platelet type (human (endogenous in MDA-MB-231 and SUM-159)) (UniProt Q01813); assay: co-IP; endogenous proteins in MDA-MB-231 and SUM-159 cell lysates; 2 µg anti-PFKP antibody and 3 µg anti-USP5 antibody per 500 µg of total protein
T2 sequence: T1 sequence

binding (GST-PFKP) | binding [1] | Substance
binds |  | His-USP5 (from UniProt P45974 1-858) (enzyme)
 | binds | Ubiquitin carboxyl-terminal hydrolase 5 (from UniProt P45974 1-858) (enzyme)
